Survivor count and T/C data for 27 compounds are collected here from PubChem BioAssay AID192 (DTP/NCI, 2004).

In this assay the test system is BDF1 mice, B16 melanoma ip, median survival T/C. In words: NCI In Vivo Anticancer Drug Screen. Data for tumor model B16 Melanoma (intraperitoneal) in B6D2F1 (BDF1) mice. As to conditions: T/C endpoint: median survival time, higher T/C = longer survival. The method, boiled down: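 Vehicle-treated animals serve as the reference (C); treated animals (T) are scored for survival or tumor size after tumor transplantation.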

The mark [1] stands for this setting: dose: 8.0 mg/kg/injection, schedule: Q01DX009 (ip), vehicle: saline.
Setting [2] is: dose: 16.0 mg/kg/injection, schedule: Q01DX009 (ip), vehicle: saline.
[3] abbreviates: dose: 100.0 mg/kg/injection, schedule: Q01DX009 (ip), vehicle: saline with Tween-80.
Setting [4] is: dose: 200.0 mg/kg/injection, schedule: Q04DX003 (ip), vehicle: saline with Tween-80.
The mark [5] stands for this setting: dose: 400.0 mg/kg/injection, schedule: Q04DX003 (ip), vehicle: saline with Tween-80.
[6] abbreviates: dose: 200.0 mg/kg/injection, schedule: Q01DX009 (ip), vehicle: Klucel (hydroxypropylcellulose) (HPC).
Setting [7] is: dose: 100.0 mg/kg/injection, schedule: Q01DX009 (ip), vehicle: saline.
[8] abbreviates: dose: 25.0 mg/kg/injection, schedule: Q01DX009 (ip), vehicle: saline with Tween-80.
Setting [9] is: dose: 200.0 mg/kg/injection, schedule: Q01DX009 (ip), vehicle: saline with Tween-80.
Where [10] appears, read: dose: 400.0 mg/kg/injection, schedule: Q01DX009 (ip), vehicle: saline with Tween-80.
Where [11] appears, read: dose: 25.0 mg/kg/injection, schedule: Q01DX009 (ip), vehicle: saline.

Molecules are shown by their SMILES. The list is a part of this screen's results and no random one: it is rich in T/C values a quarter to a half above the control, in often repeated tests (any T/C) and in doses without a T/C. Other doses and runs of a compound stand elsewhere. T/C: endpoint of the treated group in % of that of the vehicle group. Some doses have a count of surviving animals in place of a T/C: the source holds a T/C of zero for them, seemingly a mark for toxic or unscored doses. Some survivor counts are full or nearly so, which does not show that the dose was tolerated: survival well below the control is almost never listed, so the zero probably covers shortened survival too. Survivors were counted at the toxicity check, usually on the fifth day, unless a day is given; later deaths do not show. Schedules are NCI's codes, read here as Q, the interval in days (D) or hours (H), X, the number of doses. Additions like (4×) say how often a value occurs here. Some entries were tested several times; the values are given in rising order. For survival time, this PubChem deposit counts one and a half times the control or more as active, and values a quarter to a half above the control carry no call in these data; other NCI protocols may use other cut-offs. Some T/C values are followed by the survivors on the day toxicity was checked, most often the fifth; where none is given, no animal had died by that day.

As to `O=C(O)c1[nH]c(=O)[nH]c(=O)c1F`, the survivor count was 10 of 10 under setting [1] and 10 of 10 under setting [2].
As to `COc1cc2cc[n+](C)cc2cc1OC`, the survivor count (dose: 100.0 mg/kg/injection, schedule: Q01DX009 (ip), vehicle: water) is recorded as 10 of 10.
`CCO/C=C1\SC(=S)N(c2ccc(C(=O)O)cc2)C1=O`: the survivor count reads like this: under setting [3], 8 of 10; (dose: 100.0 mg/kg/injection, schedule: Q04DX003 (ip), vehicle: saline with Tween-80) 9 of 10; under setting [4], 6 of 10; under setting [5], 2 of 10.
As to `c1ccc(-c2nc(N3CCOCC3)nc3ccccc23)cc1`, the survivor count under setting [5] is 10 of 10.
With `NN(CC1=COc2ccccc2O1)Cc1ccccc1`, the survivor count runs as follows: under setting [6], 9 of 10; (dose: 400.0 mg/kg/injection, schedule: Q04DX003 (ip), vehicle: Klucel (hydroxypropylcellulose) (HPC)) 10 of 10.
As for `COc1ccc(NC(=O)Nc2ccc(OC)cc2)cc1`, the T/C under setting [7] is 126 % of control.
Regarding `COc1cc(OC)c(/C=C/c2c3ccccc3cc[n+]2C)c(OC)c1`, the survivor count reads like this: (dose: 3.13 mg/kg/injection, schedule: Q01DX009 (ip), vehicle: saline with Tween-80) 10 of 10; (dose: 6.25 mg/kg/injection, schedule: Q01DX009 (ip), vehicle: saline with Tween-80) 0 of 10; (dose: 12.5 mg/kg/injection, schedule: Q01DX009 (ip), vehicle: saline with Tween-80) 0 of 10; under setting [8], 0 of 10; under setting [3], 0 of 10; under setting [9], 0 of 10. Besides, the survivor count under setting [10] is recorded as 0 of 10.
`Oc1ccc(SCc2ccc(NCc3ccccc3)cc2)cc1`: the survivor count was 9 of 9 (dose: 12.5 mg/kg/injection, schedule: Q01DX009 (ip), vehicle: DMSO); 10 of 10 (dose: 25.0 mg/kg/injection, schedule: Q01DX009 (ip), vehicle: DMSO); 10 of 10 (dose: 50.0 mg/kg/injection, schedule: Q01DX009 (ip), vehicle: DMSO); 10 of 10 (dose: 100.0 mg/kg/injection, schedule: Q01DX009 (ip), vehicle: DMSO); 3 of 10 (dose: 200.0 mg/kg/injection, schedule: Q01DX009 (ip), vehicle: DMSO); 1 of 10 (dose: 400.0 mg/kg/injection, schedule: Q01DX009 (ip), vehicle: DMSO).
For the compound `CCCCCC(=O)c1ccc(O)cc1O`, the survivor count (dose: 50.0 mg/kg/injection, schedule: Q01DX009 (ip), vehicle: gum acacia) is reported as 10 of 10.
Take `CC(C)CC(N)C(=O)OCc1ccccc1` (stereo not given): the survivor count under setting [7] is reported as 10 of 10.
In the case of `C[C@]12CC[C@H](OC(=O)Cc3ccc(N(CCCl)CCCl)cc3)CC1=CC[C@@H]1[C@@H]2CC[C@]2(C)C(=O)CC[C@@H]12`, the survivor count under setting [10] is 10 of 10.
For the compound `COc1cc(NC(=O)CN(CCCl)CCCl)cc(OC)c1OC`, the T/C reads like this: under setting [8], 127 % of control [8 of 10 alive]; under setting [3], 127 % of control; under setting [9], 139 % of control. The survivor count under setting [9] is recorded as 10 of 10 and the survivor count under setting [10] is given as 5 of 10.
Consider `CN1CCCN(C(c2ccccc2)c2ccc(Cl)cc2)CC1` (stereo not given), for which the survivor count by setting is: (dose: 62.5 mg/kg/injection, schedule: Q01DX009 (ip), vehicle: saline) 10 of 10; (dose: 125.0 mg/kg/injection, schedule: Q01DX009 (ip), vehicle: saline) 0 of 10; (dose: 250.0 mg/kg/injection, schedule: Q01DX009 (ip), vehicle: saline) 0 of 10.
Take `COc1ccc(NC(=O)Nc2cc(C(F)(F)F)ccc2Cl)cc1`: the survivor count under setting [3] was 10 of 10, the survivor count under setting [9] is given as 10 of 10 and the survivor count under setting [10] was 10 of 10.
As to `C=C1C(=O)O[C@@H]2[C@H](O)[C@@H](C)[C@@H]3C=CC(=O)[C@@]3(C)[C@@H](OC(=O)/C(C)=C/C)[C@H]12`, the survivor count (dose: 12.0 mg/kg/injection, schedule: Q01DX009 (ip), vehicle: other) was 5 of 10 and the survivor count (dose: 12.0 mg/kg/injection, schedule: Q01DX009 (ip), vehicle: saline + alcohol) was 10 of 10.
Turning to `CCC(CC)COC(=O)c1ccccc1C(=O)OCC(CC)CC`, the survivor count is 10 of 10 under setting [8]; 9 of 10 (dose: 50.0 mg/kg/injection, schedule: Q01DX009 (ip), vehicle: saline with Tween-80); 9 of 10 and 10 of 10 under setting [3]; 10 of 10 (2×) under setting [9]; 10 of 10 (2×) under setting [10].
Regarding `O=S1(=O)N2CN3CN(C2)CN1C3`, under setting [6], the survivor count is on record as 8 of 10.
For `CCOC(=O)c1ccc(NC(=O)Nc2nc(C)cs2)cc1`, the T/C (dose: 12.5 mg/kg/injection, schedule: Q01DX009 (ip), vehicle: distilled water + Tween-80) was 131 % of control; the T/C (dose: 50.0 mg/kg/injection, schedule: Q01DX009 (ip), vehicle: distilled water + Tween-80) is 126 % of control; the T/C (dose: 100.0 mg/kg/injection, schedule: Q01DX009 (ip), vehicle: distilled water + Tween-80) was 144 % of control.
As for `CCN(CC)CCCC(C)Nc1c2ccc(C)cc2nc2ccc(OC)cc12` (stereo not given), under setting [11], the T/C was 126 % of control. Besides, the survivor count under setting [7] was 0 of 10 and 2 of 10.
For the compound `CN(C)N=Nc1cccc(C(N)=O)c1`, the T/C (dose: 40.0 mg/kg/injection, schedule: Q01DX009 (ip), vehicle: Klucel (hydroxypropylcellulose) (HPC)) was 126 % of control (2×). Also, where the note is “dose: 160.0 mg/kg/injection, schedule: Q01DX009 (ip), vehicle: Klucel (hydroxypropylcellulose) (HPC)”, the survivor count is on record as 10 of 10.
On to `COc1cccc(/C=C/[N+](=O)[O-])c1OC`, for which the T/C (dose: 17.5 mg/kg/injection, schedule: Q01DX009 (ip), vehicle: saline with Tween-80) was 125 % of control.
Consider `CCC(=O)c1ccc2c(c1)N(CCCN1CCN(CCO)CC1)c1ccccc1S2`, for which the survivor count (dose: 0.12 mg/kg/injection, schedule: Q01DX009 (ip), vehicle: saline) is 9 of 10; the survivor count under setting [1] is reported as 4 of 10; the survivor count under setting [2] is recorded as 5 of 10; the survivor count (dose: 32.0 mg/kg/injection, schedule: Q01DX009 (ip), vehicle: saline) is 4 of 10; the survivor count (dose: 64.0 mg/kg/injection, schedule: Q01DX009 (ip), vehicle: saline) is recorded as 0 of 10.
Turning to `CC(N)(Cc1ccc(O)c(O)c1)C(=O)O` (stereo not given), the survivor count under setting [11] is 10 of 10.
Turning to `C/C=C(\Cl)C1=CC(=O)C23CC2C2(C)COC1(O)C3(O)O2` (stereo not given), the survivor count is reported as 10 of 10 (dose: 1.5 mg/kg/injection, schedule: Q01DX009 (ip), vehicle: saline with Tween-80); 10 of 10 (dose: 3.0 mg/kg/injection, schedule: Q01DX009 (ip), vehicle: saline with Tween-80); 10 of 10 (dose: 6.0 mg/kg/injection, schedule: Q01DX009 (ip), vehicle: saline with Tween-80); 2 of 10 (dose: 12.0 mg/kg/injection, schedule: Q01DX009 (ip), vehicle: saline with Tween-80); 0 of 10 (dose: 24.0 mg/kg/injection, schedule: Q01DX009 (ip), vehicle: saline with Tween-80); 0 of 10 (dose: 48.0 mg/kg/injection, schedule: Q01DX009 (ip), vehicle: saline with Tween-80).
Consider `CNC(=O)n1c(N)nc(-c2ccccc2)c1-c1ccccc1`, for which the survivor count under setting [3] is on record as 6 of 10.
In the case of `Cc1cc(O)c(N=Nc2ccc(C(=O)O)cc2)cc1C`, the survivor count (dose: 400.0 mg/kg/injection, schedule: Q01DX009 (ip), vehicle: suspension in saline) is on record as 8 of 10.
Consider `OC(Cc1nc2ccccc2s1)(C(F)(F)F)C(F)(F)F`, for which the T/C under setting [9] was 125 % of control. Further, the survivor count under setting [4] is 8 of 10.
